No constants are given. Whether binding was seen depends on the method and setting. In cells and extracts the contact can be indirect. A yes stands for co-enrichment or nearness to the bait. Other partners may have been found. Where a sequence is shown, tags or fusion partners need not be part of it.
Biological target: T1, full-length Pirh2 (Pirh2-GST) (human) (UniProt Q96PM5)
T1 sequence: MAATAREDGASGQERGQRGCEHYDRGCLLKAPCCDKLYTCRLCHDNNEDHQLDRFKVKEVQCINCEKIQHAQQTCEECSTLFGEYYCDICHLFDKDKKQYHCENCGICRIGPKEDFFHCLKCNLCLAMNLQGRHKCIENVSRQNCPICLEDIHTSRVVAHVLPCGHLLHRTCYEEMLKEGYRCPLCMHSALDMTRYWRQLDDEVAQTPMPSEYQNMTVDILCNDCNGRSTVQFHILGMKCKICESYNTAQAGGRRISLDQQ
Assay: affinity purification with mass spectrometry; Pirh2-GST (GST as control) immobilised on glutathione-sepharose beads, incubated with HEK293T cell extract at 4 °C for 3 h, washed with PBS; retained proteins identified by LC-MS/MS; only the target purified

By UniProt entry, the sequences of proteins in these tests, tags left out.
UniProt Q9UPY3: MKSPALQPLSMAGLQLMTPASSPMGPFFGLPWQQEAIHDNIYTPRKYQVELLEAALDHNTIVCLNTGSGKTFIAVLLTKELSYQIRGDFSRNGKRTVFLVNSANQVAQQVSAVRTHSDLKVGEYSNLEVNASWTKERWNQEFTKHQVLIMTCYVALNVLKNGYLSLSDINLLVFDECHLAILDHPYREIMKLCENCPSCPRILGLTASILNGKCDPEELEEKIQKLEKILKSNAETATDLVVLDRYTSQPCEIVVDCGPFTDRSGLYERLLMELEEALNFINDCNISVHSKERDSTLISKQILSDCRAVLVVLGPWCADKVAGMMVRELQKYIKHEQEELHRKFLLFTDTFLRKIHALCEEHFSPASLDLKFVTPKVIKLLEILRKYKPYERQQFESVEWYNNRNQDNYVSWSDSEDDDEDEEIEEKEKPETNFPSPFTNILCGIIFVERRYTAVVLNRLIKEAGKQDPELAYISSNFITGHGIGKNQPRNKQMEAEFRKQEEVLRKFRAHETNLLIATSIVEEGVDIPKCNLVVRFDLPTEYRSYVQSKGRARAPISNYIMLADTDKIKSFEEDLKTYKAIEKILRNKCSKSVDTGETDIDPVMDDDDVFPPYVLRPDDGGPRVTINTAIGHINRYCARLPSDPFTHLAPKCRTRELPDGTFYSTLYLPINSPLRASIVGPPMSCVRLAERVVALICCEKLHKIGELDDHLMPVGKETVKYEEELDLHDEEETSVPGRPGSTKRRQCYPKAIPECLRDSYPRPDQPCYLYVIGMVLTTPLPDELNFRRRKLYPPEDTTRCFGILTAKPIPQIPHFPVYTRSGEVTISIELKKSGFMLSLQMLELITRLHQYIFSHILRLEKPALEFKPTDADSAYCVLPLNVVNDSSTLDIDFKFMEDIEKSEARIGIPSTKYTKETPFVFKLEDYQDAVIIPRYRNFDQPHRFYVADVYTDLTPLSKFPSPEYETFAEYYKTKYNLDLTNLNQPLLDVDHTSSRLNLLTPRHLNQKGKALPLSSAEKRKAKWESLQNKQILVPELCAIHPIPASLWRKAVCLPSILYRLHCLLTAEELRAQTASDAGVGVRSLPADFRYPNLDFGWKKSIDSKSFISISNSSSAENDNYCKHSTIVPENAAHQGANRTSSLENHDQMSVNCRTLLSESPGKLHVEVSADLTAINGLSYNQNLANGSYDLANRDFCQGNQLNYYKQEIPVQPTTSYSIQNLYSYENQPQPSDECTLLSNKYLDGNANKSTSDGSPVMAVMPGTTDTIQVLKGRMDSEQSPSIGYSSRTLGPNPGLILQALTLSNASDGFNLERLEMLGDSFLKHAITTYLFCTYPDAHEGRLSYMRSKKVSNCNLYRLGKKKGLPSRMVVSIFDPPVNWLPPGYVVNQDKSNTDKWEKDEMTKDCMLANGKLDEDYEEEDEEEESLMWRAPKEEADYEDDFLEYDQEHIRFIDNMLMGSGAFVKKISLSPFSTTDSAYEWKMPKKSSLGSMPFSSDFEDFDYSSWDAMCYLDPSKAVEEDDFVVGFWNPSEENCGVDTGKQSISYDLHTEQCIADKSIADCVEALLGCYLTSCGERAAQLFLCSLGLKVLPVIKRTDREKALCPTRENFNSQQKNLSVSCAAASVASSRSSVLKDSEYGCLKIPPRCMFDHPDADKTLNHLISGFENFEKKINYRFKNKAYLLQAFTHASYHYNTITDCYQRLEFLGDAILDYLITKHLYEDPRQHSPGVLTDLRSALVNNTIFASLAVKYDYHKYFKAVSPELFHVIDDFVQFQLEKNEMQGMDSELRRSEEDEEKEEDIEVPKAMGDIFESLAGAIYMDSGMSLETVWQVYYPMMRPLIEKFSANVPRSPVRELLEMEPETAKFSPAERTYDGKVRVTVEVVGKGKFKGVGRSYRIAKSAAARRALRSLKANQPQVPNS
UniProt P09874: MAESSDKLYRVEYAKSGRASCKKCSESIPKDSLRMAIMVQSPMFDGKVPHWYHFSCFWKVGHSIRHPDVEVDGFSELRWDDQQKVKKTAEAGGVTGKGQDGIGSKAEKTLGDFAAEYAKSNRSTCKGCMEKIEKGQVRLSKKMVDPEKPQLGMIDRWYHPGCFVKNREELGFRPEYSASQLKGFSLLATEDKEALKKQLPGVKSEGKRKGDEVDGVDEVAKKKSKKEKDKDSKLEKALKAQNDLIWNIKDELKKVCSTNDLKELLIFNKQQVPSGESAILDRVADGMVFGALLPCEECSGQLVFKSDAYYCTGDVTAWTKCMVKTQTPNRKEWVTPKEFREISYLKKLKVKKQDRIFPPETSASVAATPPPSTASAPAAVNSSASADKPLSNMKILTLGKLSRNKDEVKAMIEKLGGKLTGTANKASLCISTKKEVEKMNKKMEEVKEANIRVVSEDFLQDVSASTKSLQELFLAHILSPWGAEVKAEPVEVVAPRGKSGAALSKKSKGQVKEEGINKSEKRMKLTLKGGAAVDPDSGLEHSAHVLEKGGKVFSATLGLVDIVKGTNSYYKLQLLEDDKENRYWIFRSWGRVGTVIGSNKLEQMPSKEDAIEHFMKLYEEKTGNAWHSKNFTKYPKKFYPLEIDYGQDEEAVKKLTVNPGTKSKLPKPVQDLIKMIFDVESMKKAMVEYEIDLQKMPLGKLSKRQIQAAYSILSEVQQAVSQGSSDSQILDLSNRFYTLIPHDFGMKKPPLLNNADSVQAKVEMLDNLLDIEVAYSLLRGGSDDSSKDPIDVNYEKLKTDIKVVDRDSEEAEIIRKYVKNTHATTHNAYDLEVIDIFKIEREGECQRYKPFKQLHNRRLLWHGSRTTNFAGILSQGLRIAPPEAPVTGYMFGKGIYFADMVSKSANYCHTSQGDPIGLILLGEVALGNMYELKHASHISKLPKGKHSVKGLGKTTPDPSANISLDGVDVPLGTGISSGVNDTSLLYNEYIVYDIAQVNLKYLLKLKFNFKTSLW
UniProt P12956: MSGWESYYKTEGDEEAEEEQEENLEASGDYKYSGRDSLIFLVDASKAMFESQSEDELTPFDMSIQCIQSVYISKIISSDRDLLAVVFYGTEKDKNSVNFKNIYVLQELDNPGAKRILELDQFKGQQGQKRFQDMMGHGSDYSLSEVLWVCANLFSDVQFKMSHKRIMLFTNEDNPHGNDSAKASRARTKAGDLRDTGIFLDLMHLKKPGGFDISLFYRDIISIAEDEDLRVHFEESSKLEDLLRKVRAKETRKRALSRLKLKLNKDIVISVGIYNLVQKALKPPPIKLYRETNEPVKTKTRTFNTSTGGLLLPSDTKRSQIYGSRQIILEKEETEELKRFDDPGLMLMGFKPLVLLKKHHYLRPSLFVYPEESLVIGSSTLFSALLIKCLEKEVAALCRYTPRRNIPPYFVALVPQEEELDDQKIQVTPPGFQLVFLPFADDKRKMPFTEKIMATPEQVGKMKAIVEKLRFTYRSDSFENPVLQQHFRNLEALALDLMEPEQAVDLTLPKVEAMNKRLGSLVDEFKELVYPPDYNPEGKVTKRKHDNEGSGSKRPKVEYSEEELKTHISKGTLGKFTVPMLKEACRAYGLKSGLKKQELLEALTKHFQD
UniProt Q15717: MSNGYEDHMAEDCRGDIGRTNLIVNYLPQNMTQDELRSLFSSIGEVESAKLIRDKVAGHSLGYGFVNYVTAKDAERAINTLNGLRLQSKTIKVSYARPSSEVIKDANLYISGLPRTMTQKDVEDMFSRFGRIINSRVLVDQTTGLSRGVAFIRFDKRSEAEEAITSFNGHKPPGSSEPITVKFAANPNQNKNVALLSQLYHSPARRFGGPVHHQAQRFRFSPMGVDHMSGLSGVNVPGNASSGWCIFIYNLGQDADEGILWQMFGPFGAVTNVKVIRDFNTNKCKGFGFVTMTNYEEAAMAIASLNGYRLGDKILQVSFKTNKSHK

| binding | Substance |
| --- | --- |
| binds | Dicer, endogenous in HEK293T (from UniProt Q9UPY3 1-1922) |
| binds | PARP1, endogenous in HEK293T (from UniProt P09874 1-1014) |
| binds | Ku70, endogenous in HEK293T (from UniProt P12956 1-609) |
| binds | HuR (ELAVL1), endogenous in HEK293T (from UniProt Q15717 1-326) |
